Data as given in US8030452B2, “IFBM'S to promote the specific attachment of target analytes to the surface of orthopedic implants” (priority 2004, dated 2011).

The chains behind the UniProt entries cited, without tags or fusion partners. Residues count along the entry.
UniProt P12643, 283-396: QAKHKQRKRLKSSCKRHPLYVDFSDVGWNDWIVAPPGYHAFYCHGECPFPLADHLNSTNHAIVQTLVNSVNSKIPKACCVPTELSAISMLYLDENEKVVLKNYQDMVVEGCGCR

Target: BMP on collagen sponge (Homo sapiens, UniProt P12643)
Conditions: IFBM mixed with BMP, 1.5 hours on sponge, compared to no IFBM (FIG. 5)
Method: To each well, a 2/16″ diameter collagen sponge (Medtronic) was added. The collagen and peptide solutions were allowed to incubate for 1.5 hours at room temperature. Sponges were then rinsed three times with 200 μL Medtronic buffer at 2200 rpm for 1 minute. To each sponge, a primary antibody directed at BMP (diluted 1:1000; R&D Systems #MAB3552) was added for 1 hour at room temperature. A secondary antibody conjugated to alkaline phosphatase (1:5000) was then incubated in the system for 0.5 hour at room temperature.

CC(C)C[C@H](NC(=O)[C@H](C)NC(=O)[C@H](CO)NC(=O)[C@H](Cc1ccccc1)NC(=O)[C@H](CO)NC(=O)[C@H](CO)NC(=O)[C@H](Cc1ccccc1)NC(=O)[C@H](C)NC(=O)[C@H](CO)NC(=O)[C@H](CC(=O)O)NC(=O)[C@H](CO)NC(=O)[C@H](CO)NC(=O)[C@H](CCCNC(=N)N)NC(=O)[C@@H](N)CO)C(=O)N[C@@H](CCC(=O)O)C(=O)NCC(=O)N[C@@H](CO)C(=O)N[C@H](C(=O)N[C@H](C(=O)N[C@@H](CO)C(=O)N[C@@H](CCCNC(=N)N)C(=O)NCC(=O)N[C@@H](CO)C(=O)N[C@@H](CO)C(=O)NCC(=O)N[C@@H](CCCCNC(=O)CCCC[C@@H]1SC[C@@H]2NC(=O)N[C@@H]21)C(N)=O)C(C)C)C(C)C [compound 2006]
BMP retained on collagen sponge: increased retention of BMP to the sponge is not seen
